Measured values from the supplement of paper PMC9254222.
The full ranking holds about 1,100 compounds; the median of “Wnt reporter firefly/Renilla luciferase ratio relative to plate median” is about 1.1, and the highest 2% start at about 1.6. Only a part is listed here, and it is no random draw.

Test system: HEK293T (UBE3A T485A transfected, BAR Wnt reporter)
Assay: Wnt reporter firefly/Renilla luciferase ratio relative to plate median (fold (linear ratio)); higher = more Wnt/beta-catenin reporter activation
Details: 24 h
In short: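 HEK293T cells carrying a transfected BAR firefly luciferase Wnt reporter, TK-Renilla and an expression plasmid were exposed to chemicals at 0.01–100 uM for 24 h, with dosing four hours after transfection. Readout used Dual-Glo luciferase. The firefly/Renilla ratio defined Wnt activity and raw Renilla defined cell health, each median-centred per plate. Figures are means of four biological replicates.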

Row | SMILES | Wnt reporter firefly/Renilla luciferase ratio (concentration: 0.1 uM) | Wnt reporter firefly/Renilla luciferase ratio (concentration: 1 uM) | Wnt reporter firefly/Renilla luciferase ratio (concentration: 10 uM) | Wnt reporter firefly/Renilla luciferase ratio (concentration: 100 uM) | Wnt reporter firefly/Renilla luciferase ratio (concentration: 0.01 uM)
1 | COc1cc(-c2ccc(N)c(OC)c2)ccc1N.Cl.Cl [3,3'-Dimethoxybenzidine dihydrochloride] | 1.1 | 1.04 | 0.854 | 0.257 | –
2 | Cc1cc(C2CC2)nc(Nc2ccccc2)n1 [Cyprodinil] | 1.28 | 1.08 | 1.22 | 0.43 | 1.41
3 | C#CCOS(=O)OC1CCCCC1Oc1ccc(C(C)(C)C)cc1 (centres undefined) [Propargite] | 1.16 | 1.02 | 0.934 | 0.259 | 1.24
4 | COc1cc(-c2ccc(N)c(OC)c2)ccc1N [3,3'-Dimethoxybenzidine] | 1.2 | 0.858 | 0.899 | 0.321 | –
5 | CC1(c2ccc(Oc3ccccc3)cc2)OC(=O)N(Nc2ccccc2)C1=O (centres undefined) [Famoxadone] | 0.933 | 1.05 | 0.214 | 0.815 | 0.995
6 | Brc1ccc(Oc2ccccc2)cc1 [p-Bromodiphenyl ether] | 1.22 | 1.12 | 1.32 | 1.36 | –
7 | C=CC(=O)NCNC(=O)C=C [N,N'-Methylenebisacrylamide] | 0.951 | 0.999 | 1.03 | 1.21 | –
8 | CCCSP(=O)(OCC)Oc1ccc(Br)cc1Cl (centres undefined) [Profenofos] | 1.01 | 1.09 | 0.988 | 0.904 | 0.829
9 | Clc1ccc(Cl)c(Cl)c1 [1,2,4-Trichlorobenzene] | 0.911 | 0.886 | 1.04 | 1.57 | –
10 | C[C@]12CCC(=O)C[C@@H]1CC[C@@H]1[C@@H]2CC[C@]2(C)[C@@H](O)CC[C@@H]12 [5alpha-Dihydrotestosterone] | 1.38 | 1.03 | 0.999 | 0.222 | –
11 | CCCCOC(=O)c1ccccc1C(=O)OCc1ccccc1 [Benzyl butyl phthalate] | 0.687 | 0.844 | 0.883 | 1.34 | –
12 | Cc1[nH]c(=O)n(C(C)(C)C)c(=O)c1Cl [Terbacil] | 1.44 | 1.21 | 1.49 | 1.35 | 1.31
13 | C=CCC1=C(C)C(OC(=O)C2C(C=C(C)C)C2(C)C)CC1=O (centres undefined) [Allethrin] | 1.06 | 1.01 | 1.08 | 0.868 | 0.989
14 | NC1=NC(O)C2C3OC4(O)OC(C(O)C2(N1)C4O)C3(O)CO (centres undefined) [Tetrodotoxin (TTX)] | 1.12 | 1.09 | 1.06 | 1.8 | 1.05
15 | C=CCOC(=O)c1ccccc1C(=O)OCC=C [Diallyl phthalate] | 1.17 | 1.04 | 1.22 | 1.09 | –
16 | CC1(C)C(C=C(Cl)Cl)C1C(=O)OC(C#N)c1ccc(F)c(Oc2ccccc2)c1 (centres undefined) [Cyfluthrin] | 0.838 | 1.05 | 1.05 | 0.895 | 1.1
17 | CCOC(=O)CC(SP(=S)(OC)OC)C(=O)OCC (centres undefined) [Malathion] | 1.23 | 0.999 | 1.03 | 1.19 | 1.46
18 | CC(O)CCO (centres undefined) [1,3-Butanediol] | 0.964 | 0.988 | 1.14 | 1.44 | –
19 | CCc1cccc(CC)c1N [2,6-Diethylaniline] | 0.758 | 0.735 | 0.779 | 0.805 | –
20 | O=C(O)CCCOc1ccc(Cl)cc1Cl | 0.903 | 1 | 0.867 | 0.758 | 0.684

2 entries picked at random from those above, as already listed:
Row | SMILES | Wnt reporter firefly/Renilla luciferase ratio (concentration: 0.1 uM) | Wnt reporter firefly/Renilla luciferase ratio (concentration: 1 uM) | Wnt reporter firefly/Renilla luciferase ratio (concentration: 10 uM) | Wnt reporter firefly/Renilla luciferase ratio (concentration: 100 uM) | Wnt reporter firefly/Renilla luciferase ratio (concentration: 0.01 uM)
10 | C[C@]12CCC(=O)C[C@@H]1CC[C@@H]1[C@@H]2CC[C@]2(C)[C@@H](O)CC[C@@H]12 [5alpha-Dihydrotestosterone] | 1.38 | 1.03 | 0.999 | 0.222 | –
14 | NC1=NC(O)C2C3OC4(O)OC(C(O)C2(N1)C4O)C3(O)CO (centres undefined) [Tetrodotoxin (TTX)] | 1.12 | 1.09 | 1.06 | 1.8 | 1.05

(continued)

Row | SMILES | Wnt reporter firefly/Renilla luciferase ratio (concentration: 0.1 uM) | Wnt reporter firefly/Renilla luciferase ratio (concentration: 1 uM) | Wnt reporter firefly/Renilla luciferase ratio (concentration: 10 uM) | Wnt reporter firefly/Renilla luciferase ratio (concentration: 100 uM) | Wnt reporter firefly/Renilla luciferase ratio (concentration: 0.01 uM)
21 | CC(C)N(C(=O)COc1nnc(C(F)(F)F)s1)c1ccc(F)cc1 [Flufenacet] | 0.746 | 0.898 | 0.605 | 0.254 | 0.973
22 | CC1(C)C(C=C(Cl)Cl)C1C(=O)OC(C#N)c1cccc(Oc2ccccc2)c1 (centres undefined) [Cypermethrin] | 1.14 | 1.06 | 0.991 | 0.601 | 1.02
23 | CCC(C)C1OC2(C=CC1C)CC1CC(CC=C(C)C(OC3CC(OC)C(OC4CC(OC)C(O)C(C)O4)C(C)O3)C(C)C=CC=C3COC4C(O)C(C)=CC(C(=O)O1)C34O)O2 (centres undefined) [Abamectin] | 1.18 | 1.23 | 0.533 | – | 1.17
24 | CCC(CC)Nc1c([N+](=O)[O-])cc(C)c(C)c1[N+](=O)[O-] [Pendimethalin] | 0.866 | 0.946 | 0.92 | 1.08 | 0.882
25 | Nc1cnn(-c2ccccc2)c(=O)c1Cl [Chloridazon] | 0.892 | 0.898 | 0.72 | 1.04 | 0.94
26 | [Na+].[O-][n+]1ccccc1[S-] [Sodium (2-pyridylthio)-N-oxide] | 1.19 | 1 | 1 | – | –
27 | Clc1ccc(C(c2ccc(Cl)cc2)C(Cl)(Cl)Cl)cc1 | 1.31 | 1.31 | 1.15 | 1.34 | –
28 | Nc1ccc2ccccc2c1 [2-Naphthylamine] | 0.991 | 0.869 | 0.998 | 0.629 | –
29 | CCC(C)(C)c1ccc(O)c(C(C)(C)CC)c1 [2,4-Bis(2-methylbutan-2-yl)phenol] | 1.09 | 1.21 | 0.893 | 1.26 | –
30 | CC(C1CC1)C(O)(Cn1cncn1)c1ccc(Cl)cc1 (centres undefined) [Cyproconazole] | 0.976 | 0.917 | 1.03 | 0.259 | 0.848
31 | CC(C)COC(=O)c1ccccc1C(=O)OCC(C)C [Diisobutyl phthalate] | 1.08 | 1.09 | 0.977 | 1.14 | –
32 | CC(C)(C)OOC(=O)c1ccccc1 [tert-Butyl perbenzoate] | 1.06 | 0.994 | 1.24 | 0.688 | –
33 | O=C(N[C@H]1CN2CCC1CC2)c1cc2ccoc2cn1 | 1.08 | 0.943 | 0.877 | 0.842 | –
34 | CC(C)(C)c1ccc(CCOc2ncnc3ccccc23)cc1 [Fenazaquin] | 0.768 | 0.93 | 0.155 | 0.51 | 0.818
35 | Nc1c(Cl)c(F)nc(OCC(=O)O)c1Cl [Fluroxypyr] | 0.91 | 0.994 | 0.96 | 1.46 | 0.709
36 | Oc1ccccc1-c1ccccc1 [2-Phenylphenol] | 0.805 | 0.923 | 0.966 | 0.723 | 0.842
37 | CCOP(=S)(OCC)SCSC(C)(C)C [Terbufos] | 1.28 | 1.01 | 1.16 | 1.27 | –
38 | Cc1cnc(C2=NC(=O)C(C)(C(C)C)N2)c(C(=O)O)c1 (centres undefined) [Imazapic] | 0.816 | 0.93 | 0.839 | 1.3 | 0.825
39 | CCCSC(=O)N(CCC)CCC [Vernolate] | 0.888 | 1.38 | 1.11 | 0.997 | –
